Results reported in PubChem BioAssay AID2685 (National Center for Advancing Translational Sciences (NCATS), 2010).
The list shows a part of the results. Shown are side measurements of this screen, not its main read-out; they come without a call. Compounds called inactive in the main read-out are mostly missing here. Words in brackets tell the shape of the fitted curve; partial curves, single points and poor fits give uncertain potencies.

Experiment: qHTS Assay for Lipid Storage Modulators in Drosophila S3 Cells;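 for cell number change: cells counted by Cell Tracker Red CMTPX staining in the red channel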
Conditions: BODIPY lipid droplet fluorescence, 18-24 h; for cell number change: measured here: cell count max response, cells fed with added oleic acid
Outline: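 Drosophila S3 cells loaded with oleic acid (400 uM, as added) and compounds at several concentrations; lipid droplets imaged by 488-nm laser-scanning cytometry, 500–530 nm intensity and object ratio to cell channel. Percent activity normalized to 20 uM Triacsin C.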

[1] = measured here: lipid fluorescence (Fed channel) AC50, cells fed with added oleic acid
[2] = measured here: cell number channel AC50, cells fed with added oleic acid

For `Cc1cccc(-n2nc(C)c3c(C(=O)O)cc(-c4cccs4)nc32)c1`, the cell number change was -0.24% and the AC50 [1] was 0.116 µM [falling, partial curve, poor fit].

With `Cc1coc2cc3oc(=O)c(CC(=O)N[C@@H](CC(C)C)C(=O)O)c(C)c3cc12` the cell number change was 23% and the AC50 [1] was 8.2 µM [rising, partial curve, poor fit].

With `CCOC(=O)c1cnc(-n2nc(C)cc2C)nc1Oc1ccc(C(=O)OC)cc1` the AC50 [2] was 0.13 µM [rising, full curve] and the AC50 [1] was 0.13 µM [rising, full curve, poor fit].

For `CCOC(=O)/C(N=Nc1sc(C(=O)OC)c(C)c1C(=O)OCC)=C(\O)CCl`, the cell number change was -25.8% and the AC50 [1] was 29.1 µM [falling, single point].

In the case of `CCOC(=O)/C(C(=O)Nc1ccccc1Cl)=C1/NC(C)(C)Cc2ccccc21`, the cell number change is reported as 48.3%, the AC50 [2] is reported as 13 µM [rising, single point] and the AC50 [1] is reported as 18.4 µM [rising, partial curve].

In the case of `CC(=O)C1=C(C)NC(SCC(=O)c2ccccc2)=C(C#N)C1CC(C)C` (configuration not stated), the cell number change is reported as 29.4%, the AC50 [2] is reported as 1.64 µM [rising, full curve, poor fit] and the AC50 [1] is reported as 4.61 µM [rising, partial curve].

With `Cc1cc(NS(=O)(=O)c2ccc(NC(=O)Cc3ccccc3)cc2)nc(C)n1` the cell number change was 28.7% and the AC50 [1] was 6.51 µM [rising, single point].

For `COc1ccc(C2Nc3ccccc3C(=O)N2NC(C)=O)cc1OC` (configuration not stated), the cell number change was -38%, the AC50 [2] was 32.6 µM [falling, single point] and the AC50 [1] was 2.91 µM [rising, partial curve].

With `CCn1c(SCC(=O)NC(C)(C)C)nnc1-c1ccccn1` the cell number change was 18% and the AC50 [1] was 6.51 µM [rising, single point].

In the case of `COc1cccc(NC(=O)CSc2nccn(-c3ccc4c(c3)OCCO4)c2=O)c1`, the cell number change is reported as -50% and the AC50 [2] is reported as 29.1 µM [falling, single point].

With `Cc1onc(-c2ccccc2)c1C(=O)N/N=C/c1cc2c(cc1Cl)OCO2` the cell number change was 34.4%, the AC50 [2] was 0.13 µM [rising, full curve] and the AC50 [1] was 1.16 µM [rising, full curve].

For `CCOC(=O)c1ccc(-n2c(CC)nc3ccccc3c2=O)cc1`, the cell number change was 8.5% and the AC50 [1] was 4.11 µM [rising, single point].

For `CCOC(=O)C1(CCOc2ccccc2)CCN(Cc2ccc(F)c(OC)c2)CC1`, the cell number change was -5.41%, the AC50 [2] was 6.51 µM [falling, single point] and the AC50 [1] was 6.51 µM [falling, single point].

In the case of `COc1cccc(NC(=O)CSc2nc(O)c(C)c(=O)n2-c2ccc(C)cc2)c1`, the AC50 [1] is reported as 29.1 µM [rising, single point].

In the case of `COCCCNC(=O)Cn1cc(C(C)=O)c2ccccc21`, the cell number change is reported as 22.7% and the AC50 [1] is reported as 29.1 µM [rising, single point].

With `CCOc1cccc2sc(NC(=O)c3ccc(Br)s3)nc12` the cell number change was -12.4% and the AC50 [1] was 9.2 µM [falling, partial curve, poor fit].

For `Cc1ccccc1OCc1nnc(SCC(=O)Nc2ccc3c(c2)oc2ccccc23)n1C`, the cell number change was -117% and the AC50 [2] was 9.2 µM [falling, partial curve].

`CC(C)NC(=O)C(c1ccc(F)cc1)N(C(=O)CCC(=O)Nc1ccccn1)c1ccccc1F` (configuration not stated) gave a cell number change of -11.1%.

For `CCN(CC(=O)Nc1ccc(NC(C)=O)cc1)C(=O)/C=C/c1c(C)nn(-c2ccc(F)cc2)c1Cl`, the AC50 [2] was 0.184 µM [falling, full curve, poor fit].

With `Cc1cc(C)c(C)c(OCCCn2ccnc2)c1` the cell number change was 198%, the AC50 [2] was 9.2 µM [rising, partial curve] and the AC50 [1] was 18.4 µM [rising, partial curve].

Compound `COc1ccc(S(=O)(=O)N2CCN(C)CC2)cc1NC(=O)c1ccccc1C` has a cell number change of 14.1%.

For `O=c1cc(/C=C/c2ccccc2)oc2c1ccc1ccccc12`, the cell number change was -11.5% and the AC50 [1] was 25.9 µM [falling, single point].

For `CCCCc1nc2cc(C(=O)N3CCN(c4cnccn4)CC3)ccc2o1`, the cell number change was 9.25% and the AC50 [1] was 29.1 µM [rising, single point].

With `O=C(O)Cn1cnc2scc(-c3ccccc3)c2c1=O` the cell number change was -11.8% and the AC50 [1] was 25.9 µM [rising, single point].

With `C=C(NC(=O)C(=C)NC(=O)c1csc(C2=NC3c4csc(n4)C4NC(=O)c5csc(n5)C([C@@](C)(O)C(C)O)NC(=O)C5CSC(=N5)/C(=C\C)NC(=O)C(C(C)O)NC(=O)c5csc(n5)[C@]3(CC2)NC(=O)C(C)NC(=O)C(=C)NC(=O)C(C)NC(=O)C(C(C)CC)NC2C=Cc3c(C(C)O)cc(nc3C2O)C(=O)OC4C)n1)C(N)=O` (some centres not stated) the cell number change was 14.2% and the AC50 [1] was 2.06 µM [falling, single point].

With `Cc1ccc(F)cc1NC(=O)CN1C(=O)NC2(CCCc3ccccc32)C1=O` (configuration not stated) the cell number change was 23.7% and the AC50 [2] was 1.16 µM [rising, full curve, poor fit].

`Cc1cccc(NC(=O)CC2SC(=NC3CCCCC3)NC2=O)c1` (configuration not stated) gave a cell number change of 2.3%.

For `O=C(NNc1ccc(Cl)cc1)c1cccs1`, the cell number change was 14.9% and the AC50 [2] was 0.58 µM [falling, single point].

For `COc1ccc2c(=O)c(-c3ccccc3)c(C)oc2c1`, the cell number change was 46.7% and the AC50 [2] was 2.59 µM [rising, partial curve].

With `O=c1[nH]c2ccc(NCc3ccccc3OCc3ccc(Cl)cc3)cc2[nH]1` the cell number change was -53% and the AC50 [2] was 25.9 µM [falling, single point].

`COC(=O)C(C)NC(=O)C12CC3CC(C1)CC(c1ccc(C)cc1)(C3)C2` (configuration not stated) gave a cell number change of -20.6%.

With `COc1cccc(-n2nnc3c(=O)n(CC(=O)Nc4ccc(C)cc4)cnc32)c1` the cell number change was -38.1%, the AC50 [2] was 6.51 µM [falling, single point] and the AC50 [1] was 6.51 µM [falling, single point].

`COc1ccc(OC)c(/C=N\NC(=O)c2c(C)nc3cc(C)ccn23)c1` showed a cell number change of 16.1%.

In the case of `C/C(=N\NC(N)=S)c1ccncc1`, the cell number change is reported as 13.7% and the AC50 [1] is reported as 7.31 µM [rising, partial curve, poor fit].

`COc1cccc2cc(C(=O)NCc3ccc(Cl)cc3)c(=O)oc12` gave a cell number change of -19%.

With `CNS(=O)(=O)c1ccc(C(=O)NCC(=O)NCCc2ccc3c(c2)OCCO3)cc1` the cell number change was -0.275% and the AC50 [1] was 0.116 µM [falling, partial curve, poor fit].

With `Cc1nn(-c2ccccc2)c(C)c1/C=N/NC(=O)c1ccccc1O` the cell number change was 23.4%, the AC50 [2] was 4.11 µM [rising, full curve, poor fit] and the AC50 [1] was 14.6 µM [rising, single point].

Work on `O=C(c1cccs1)N1CCN(c2nc3c(F)cc(F)cc3s2)CC1` yielded a cell number change of -20.8%.

In the case of `O=C(CSCc1ccc(F)cc1)NC1CCCC1`, the cell number change is reported as -38.4%, the AC50 [2] is reported as 4.11 µM [falling, full curve] and the AC50 [1] is reported as 3.66 µM [falling, full curve].

With `Cc1ccc(NC(=O)CCc2nc3ccccc3c(=O)[nH]2)cc1S(=O)(=O)N1CCOCC1` the cell number change was -18% and the AC50 [1] was 5.8 µM [falling, full curve, poor fit].

With `NS(=O)(=O)c1ccc(NNC(=O)c2ccccc2)cc1` the cell number change was -15.5% and the AC50 [1] was 6.51 µM [falling, single point].

For `O=C(N/N=C/c1cccc(OC(=O)c2ccc3c(c2)OCO3)c1)c1cncc(Br)c1`, the AC50 [1] was 4.61 µM [rising, partial curve].

With `CSc1nsc(/C=C/Nc2ccc(F)cc2F)c1C#N` the cell number change was 19.5% and the AC50 [1] was 6.51 µM [rising, single point].

For `CCc1c(C)sc(NC(=O)OC)c1C(=O)N1CCOCC1`, the cell number change was -17% and the AC50 [1] was 29.1 µM [falling, single point].

In the case of `CC1(C)Cc2c(c(-c3ccccc3Cl)[nH]c(=O)c2C#N)CO1`, the AC50 [2] is reported as 6.51 µM [falling, single point] and the AC50 [1] is reported as 29.1 µM [falling, single point].

For `O=C(Nc1ccc(F)cc1F)N1CCCN(c2ccc([N+](=O)[O-])cn2)CC1`, the cell number change was -41.2%, the AC50 [2] was 29.1 µM [falling, single point] and the AC50 [1] was 18.4 µM [falling, single point].

In the case of `CCOc1ccccc1NC(=O)Nc1cccc(C(C)=O)c1`, the cell number change is reported as 0.971%, the AC50 [2] is reported as 1.64 µM [rising, single point] and the AC50 [1] is reported as 0.651 µM [rising, partial curve, poor fit].

For `O=C(Nc1cnn(C23CC4CC(CC(C4)C2)C3)c1)c1cnn2cccnc12`, the cell number change was -44.8%, the AC50 [2] was 13 µM [falling, partial curve] and the AC50 [1] was 1.03 µM [rising, single point].

With `Cc1ccccc1NC(=O)c1ccc(C)c(S(=O)(=O)N2CCN(C)CC2)c1` the cell number change was 1.37% and the AC50 [1] was 29.1 µM [falling, single point].

In the case of `Cc1cnc(NC(=O)CSc2nnc(-c3ccncc3)n2C2CCCCC2)s1`, the cell number change is reported as 0.475% and the AC50 [1] is reported as 10.3 µM [rising, partial curve].

For `COc1ccccc1Cn1c(SCC(N)=O)nc2c(oc3ccccc32)c1=O`, the cell number change was 9.12% and the AC50 [1] was 0.164 µM [rising, full curve, poor fit].

For `CCCn1c(C(O)c2cc(OC)c(OC)c(OC)c2)nc2ccccc21` (configuration not stated), the cell number change was -47.2%, the AC50 [2] was 7.31 µM [falling, partial curve] and the AC50 [1] was 29.1 µM [falling, single point].

Compound `O=C(CSc1nc2ccccc2[nH]1)Nc1ccc(N2CCOCC2)cc1` has a cell number change of -1.74%.

For `CC1CCC(NC(=O)c2cc(Cl)nc3ccccc23)CC1` (configuration not stated), the cell number change was -10.6% and the AC50 [1] was 0.092 µM [rising, full curve, poor fit].

Work on `CCc1ccc(NC(=O)C2CCN(C(=O)N3CCOc4ccccc43)CC2)cc1` yielded a cell number change of 2.88%.

For `Cc1cccc(C2CC(c3ccc(F)cc3)Nc3nc(N)nn32)c1` (configuration not stated), the AC50 [1] was 5.8 µM [rising, full curve, poor fit].
